Measured values as given in patent US20080118512A1 (DELENEX THERAPEUTICS, published 2008).
Results are given in words; binding and its absence hold for the method and conditions named. Some binding calls cover weakened binding; strength is not graded here.

Molecular target: T1, human ALK epitope peptide (amino acids 391-406 of the ALK protein) (human)
T1 sequence (peptide): GRIGRPDNPFRVALEY
Assay: ELISA; the coated antigen is not named on the sheet or in the legend, taken as the ALK epitope peptide

- binding: binds
B1: scFv 28.11 (scFv)
scFv: QSVLTQPPSVSAAPGQKVTISCSGSTSNIGDNYVSWYQQLPGTAPQLLIYDNTKRPSGIPDRFSGSKSGTSATLGITGLQTGDEADYYCATWDNDKWGVVFGGGTKLEVLGGGGGSGGGGSGGGGSSGGGSEVQLVESGGGLVQPGGSLRLSCAASGFTFSSYAMSWVRQAPGKGLEWVSAIETSSGSTYYADSVKGRFTISRDNSKNTLYLQMNSLRAEDTAVYYCARDAWLDVLSDGFDYWGQGTLVTVSS
